Consider six compounds from PubChem BioAssay AID449745 (Broad Institute, 2010).

Sequences of proteins named here, by UniProt entry; tags and fusion partners are left off. A change or cut given only in a name is not applied to a line headed by its entry.
UniProt Q9XUB2: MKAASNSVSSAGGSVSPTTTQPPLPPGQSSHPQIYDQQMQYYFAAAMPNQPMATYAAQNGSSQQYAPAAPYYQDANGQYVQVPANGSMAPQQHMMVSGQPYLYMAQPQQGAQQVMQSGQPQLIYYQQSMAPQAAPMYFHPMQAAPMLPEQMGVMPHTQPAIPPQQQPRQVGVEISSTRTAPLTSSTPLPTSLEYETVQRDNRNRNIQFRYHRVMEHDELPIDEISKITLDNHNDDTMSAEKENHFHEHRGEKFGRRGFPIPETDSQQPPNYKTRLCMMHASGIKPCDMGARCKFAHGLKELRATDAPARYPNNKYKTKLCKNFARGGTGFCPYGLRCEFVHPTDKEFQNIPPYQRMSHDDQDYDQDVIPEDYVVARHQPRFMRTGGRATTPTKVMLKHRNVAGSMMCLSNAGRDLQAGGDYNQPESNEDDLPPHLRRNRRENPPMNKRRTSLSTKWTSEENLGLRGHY

The list shows a part of the results. Where no call is shown, the source marks the result inconclusive.

The experiment has as its target Zinc finger protein mex-5 (Caenorhabditis elegans) (UniProt Q9XUB2). As to the kind of experiment: MEX-5 RNA-binding inhibition confirmation – biochemical, C. elegans, fluorescence polarization, dose retest (AID 449745). To be noted: Mex-5 / TCR-2 RNA binding, at 38 µM (top of the series).
With `Nc1ccc(S(=O)(=O)NNC(=O)C(=O)NNc2ccccn2)cc1`, the activity change, negative = inhibition was -57.6%.
The same measure for `CN(C)c1ccc(/C=C(\C#N)C(=O)c2ccccc2)cc1`: -4.28%; for `Oc1ccc(/C=N/Nc2ccc(Cl)nn2)c(O)c1O`: -31.5%; for `Oc1ccc(/C=N/Nc2ncnc3nc[nH]c23)cc1`: -11.4%.
The same measure for `Cc1ccccc1S(=O)(=O)NNC(=O)C(=O)NNc1ccccn1`: -54.1%.
The same measure for `CCOc1ccc(N=Nc2c(=O)[nH]n3c(=O)c4c([nH]c23)CCCC4)cc1`: -42.5%.
